Values from PubChem BioAssay AID1159584 (Peter MacCallum Cancer Centre, 2016)
Screen: 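Genes that CDH1-null MCF10A cells selectively depend on to survive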 (primary screen). Cells: human MCF10A breast epithelial cells, parental and CDH1-null. Reagents: siRNA against human genes. Measurement: 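Cell viability by CellTiter-Glo ATP luminescence, each line scaled to the mean of mock wells across plates, then CDH1-null over parental ratio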. Scale: CDH1-null / parental viability ratio: higher = CDH1-null cells survive relatively better than parental; CDH1-null viability vs mock: higher = more viable CDH1-null cells.
Shown is a random part of about 18,000 deposited reagents. Further read-outs or replicates are left out here. No sequences are given here. The record does not give: the amount of reagent, the time to read-out.

{"target gene":"HMCN1","CDH1-null / parental viability ratio":0.96,"CDH1-null viability vs mock (fraction of mock)":0.5}
{"target gene":"NPAS1","CDH1-null / parental viability ratio":0.96,"CDH1-null viability vs mock (fraction of mock)":1}
{"target gene":"FNTB","CDH1-null / parental viability ratio":1.07,"CDH1-null viability vs mock (fraction of mock)":0.94}
{"target gene":"DNAAF10","CDH1-null / parental viability ratio":0.76,"CDH1-null viability vs mock (fraction of mock)":0.74}
{"target gene":"CLASP1","CDH1-null / parental viability ratio":1.93,"CDH1-null viability vs mock (fraction of mock)":0.89}
{"target gene":"BTBD10","CDH1-null / parental viability ratio":1.52,"CDH1-null viability vs mock (fraction of mock)":0.82}
{"target gene":"MRPL3","CDH1-null / parental viability ratio":1.14,"CDH1-null viability vs mock (fraction of mock)":1.05}
{"target gene":"AKR7A3","CDH1-null / parental viability ratio":1.01,"CDH1-null viability vs mock (fraction of mock)":0.77}
{"target gene":"MIEF2","CDH1-null / parental viability ratio":1.88,"CDH1-null viability vs mock (fraction of mock)":0.92}
{"target gene":"SCNN1D","CDH1-null / parental viability ratio":1.28,"CDH1-null viability vs mock (fraction of mock)":0.74}
{"target gene":"AXIN1","CDH1-null / parental viability ratio":1.1,"CDH1-null viability vs mock (fraction of mock)":0.92}
{"target gene":"KNTC1","CDH1-null / parental viability ratio":1.18,"CDH1-null viability vs mock (fraction of mock)":0.66}
{"target gene":"PTPRH","CDH1-null / parental viability ratio":1.71,"CDH1-null viability vs mock (fraction of mock)":0.77}
{"target gene":"OR2AT4","CDH1-null / parental viability ratio":1.06,"CDH1-null viability vs mock (fraction of mock)":0.85}
{"target gene":"CCSER1","CDH1-null / parental viability ratio":0.81,"CDH1-null viability vs mock (fraction of mock)":0.6}
{"target gene":"C16orf54","CDH1-null / parental viability ratio":1.3,"CDH1-null viability vs mock (fraction of mock)":0.52}
{"target gene":"PIP4K2A","CDH1-null / parental viability ratio":1.16,"CDH1-null viability vs mock (fraction of mock)":1.03}
{"target gene":"SRP19","CDH1-null / parental viability ratio":1.05,"CDH1-null viability vs mock (fraction of mock)":0.92}
{"target gene":"SLC37A1","CDH1-null / parental viability ratio":1,"CDH1-null viability vs mock (fraction of mock)":0.96}
{"target gene":"ATP9A","CDH1-null / parental viability ratio":0.98,"CDH1-null viability vs mock (fraction of mock)":0.93}
{"target gene":"TOGARAM2","CDH1-null / parental viability ratio":1.36,"CDH1-null viability vs mock (fraction of mock)":0.53}
{"target gene":"SMAP2","CDH1-null / parental viability ratio":0.85,"CDH1-null viability vs mock (fraction of mock)":0.7}
{"target gene":"GLYCTK","CDH1-null / parental viability ratio":1.05,"CDH1-null viability vs mock (fraction of mock)":0.81}
{"target gene":"KIF18B","CDH1-null / parental viability ratio":1.21,"CDH1-null viability vs mock (fraction of mock)":0.8}

2 consecutive entries already listed, for reference:
{"target gene":"SLC37A1","CDH1-null / parental viability ratio":1,"CDH1-null viability vs mock (fraction of mock)":0.96}
{"target gene":"ATP9A","CDH1-null / parental viability ratio":0.98,"CDH1-null viability vs mock (fraction of mock)":0.93}
